{"source": "patent US11318136B2", "about": "“Identification of granins as the pathogenic factor of alzheimer's disease and compositions and methods for inhibiting granin aggregation and treating alzheimer's disease” (priority 2018, dated 2022)", "key": {"[1]": {"molecular_target": "T1, chromogranin A (CGA) (Bos taurus, UniProt P05059)", "T1 construct": "from tissue; host or cells: secretory granules of bovine adrenal medulla", "T1 sequence (P05059 19-449)": "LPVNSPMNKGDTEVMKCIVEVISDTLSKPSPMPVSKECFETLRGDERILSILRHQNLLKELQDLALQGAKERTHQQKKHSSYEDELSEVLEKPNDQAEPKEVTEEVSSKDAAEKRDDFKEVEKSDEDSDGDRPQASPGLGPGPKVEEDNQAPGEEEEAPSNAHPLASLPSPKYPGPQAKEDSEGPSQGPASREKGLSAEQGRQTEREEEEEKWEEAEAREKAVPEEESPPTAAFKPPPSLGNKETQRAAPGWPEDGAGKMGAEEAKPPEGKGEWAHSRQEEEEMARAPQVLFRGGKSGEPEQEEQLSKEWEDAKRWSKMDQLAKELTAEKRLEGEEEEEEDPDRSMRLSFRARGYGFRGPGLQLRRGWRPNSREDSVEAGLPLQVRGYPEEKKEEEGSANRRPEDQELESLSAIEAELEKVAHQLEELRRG", "experiment": "Metal-induced chromogranin A aggregation (turbidity)", "assay_type": "biochemical, bovine", "conditions": "1 μM compound; chromogranin A 0.005 mg/ml (0.1 μM); pH 7.4", "excerpt": "(§1) Materials: The major granin proteins, chromogranin A (CGA), chromogranin B (CGB), and secretogranin II (SgII) were purified from secretory granules of bovine adrenal medulla as described (Park et al., 2002; Yoo, 1995; Yoo and Albanesi, 1990). Chelex 100 was from Bio-Rad (U.S.A), and other chemicals were of highest purity that is commercially available. Purified native chromogranin B (c), secretogranin II (d), and chromogranin A (b) are illustrated in FIG. 4. The flavonoids, stilbenoids, and the other test compounds used in the present experiments were obtained from MedChem Express (U.S.A.), Sigma-Aldrich (U.S.A.), and Santa-Cruz Biotech. (U.S.A.), and the purity of all the compounds tested was 98% or higher.\n(§2) Aggregation Experiments: Prior to aggregation studies, it is necessary to remove metal ions that had interacted with granins during purification process from granins through extensive treatments with chelating agents such as Chelex 100 (Bio-Rad, U.S.A) to dissociate the granin aggregates. For metal-induced aggregation studies, Chelex 100-treated CGA, CGB, or SgII in 2 mM MOPS, pH 7.4, was titrated with concentrated metal ions such as CuCl2, FeCl2, and ZnCl2. Aggregation was monitored by measuring the turbidity change with a Beckman DU640 uv/vis spectrophotometer. All the measurements were done at 24° C. […]"}, "[2]": {"molecular_target": "T2, secretogranin II (SgII) (Bos taurus, UniProt P20616)", "T2 construct": "from tissue; host or cells: secretory granules of bovine adrenal medulla", "T2 sequence (P20616 31-613)": "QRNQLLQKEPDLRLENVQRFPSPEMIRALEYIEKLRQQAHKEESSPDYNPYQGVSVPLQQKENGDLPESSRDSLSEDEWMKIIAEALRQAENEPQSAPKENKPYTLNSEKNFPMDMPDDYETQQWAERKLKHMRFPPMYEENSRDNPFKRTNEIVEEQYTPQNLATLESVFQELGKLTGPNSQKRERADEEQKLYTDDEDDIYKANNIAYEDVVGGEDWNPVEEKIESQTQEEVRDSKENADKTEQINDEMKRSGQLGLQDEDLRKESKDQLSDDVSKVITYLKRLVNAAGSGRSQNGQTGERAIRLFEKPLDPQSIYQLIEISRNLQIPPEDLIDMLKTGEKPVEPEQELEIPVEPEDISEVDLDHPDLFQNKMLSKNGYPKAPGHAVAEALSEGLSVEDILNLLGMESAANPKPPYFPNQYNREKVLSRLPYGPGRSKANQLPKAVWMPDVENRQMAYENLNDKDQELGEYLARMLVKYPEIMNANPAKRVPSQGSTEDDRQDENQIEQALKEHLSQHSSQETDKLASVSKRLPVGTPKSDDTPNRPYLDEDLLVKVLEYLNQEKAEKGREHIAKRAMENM", "experiment": "Metal-induced secretogranin II aggregation (turbidity)", "assay_type": "biochemical, bovine", "conditions": "1 μM compound; secretogranin II 0.005 mg/ml (0.07 μM); pH 7.4", "excerpt": "as §1, §2"}}, "note": "At least one compound was matched to its structure with a doubt left."}
{"smiles": "O=c1cc(-c2ccc(O)cc2)oc2cc(O)c(O)c(O)c12", "note": "[scutellarein]", "values": [{"measurement": "Cu2+-induced chromogranin A aggregation", "setting": "[1]", "value": "mostly suppressed"}, {"measurement": "Cu2+-induced secretogranin II aggregation", "setting": "[2]", "value": "mostly inhibited"}]}
